Assay results from publication PMC12651750 (Cells, 2025).

What was measured:
[1] = test system: HUVEC, human umbilical vein endothelial cells; assay: Toxicity on normal cells (MTT / CCK-8 assay); assay type: cell-based; details: 72 h, read-out: IC50 anti-proliferative activity against HUVECs
Experimental: (§1) These cells were purchased from the National Collection of Authenticated Cell Cultures (Shanghai, China).
(§2) The concentration of the cell suspension was adjusted to the appropriate concentration with fresh medium (the number of cells was about 30–40% of the bottom area of the well plate). 150 μL (about 1 × 10^4 cells) of prepared cell suspension containing different concentrations of NBU-2 were added to a 96-microtiter plate, and 3 replicate wells were set up for each concentration. If the cells were adherent, the cells were first allowed to grow overnight in 96 microtiter plates until the cells were adherent, and then the old medium was replaced with the drug-containing medium. The plates were incubated in a 5% CO2 cell incubator at 37 °C for 72 h. Then, 15 μL of MTT solution was added to each well, 100 μL of 10% SDS solution (pH = 2) was added after 4 h, and the plate was incubated at 37 °C with 5% CO2 overnight to fully dissolve the crystals.
(§3) The cells (about 1 × 10^4 cells) were treated with different concentrations of NBU-2 and DMSO control for different times (24 h, 48 h, 72 h), with 3 replicate wells for each concentration. Incubate at 37 °C in a 5% CO2 cell culture incubator. After a predetermined time, 10 μL of CCK-8 was added to each well and incubated for 2 h. The absorbance was measured at the excitation wavelength of 450 nm.

[2] = test system: Jurkat, human leukemic T cell line; assay: Anti-proliferation MTT / CCK-8 assay; assay type: cell-based; details: 72 h, read-out: IC50 against Jurkat cells
Experimental: as §1, §2, §3

O=C(CCCCCCC(=O)Nc1ccccc1)NO [SAHA, Vorinostat, reference compound]
IC50 [1]: 5.62 µM
IC50 [2]: 0.37 µM
